Measured values as given in US20090131512A1, “Inhibition of type I in IFN production” (Dynavax Technologies Corp., priority 2007, published 2009).
Entries after “also recorded” stand apart in the source; their conditions may differ. For at least one compound, name, drawing or mass did not settle the structure.

Columns and labels:
[1] = system: purified pDC; assay: Uptake of fluorescent CpG ODN by pDC, flow cytometry; assay type: cell-based, human; settings: 0.5 μM CpG-C/Alexa-488; inhibitors 5 μM; 3 hours
[2] = system: purified human pDC; assay: IFN-α production by TLR-activated purified pDC, ELISA; assay type: cell-based
[3] = system: purified pDC; assay: Type I IFN mRNA expression in pDC, real-time quantitative PCR; assay type: cell-based, human; settings: CpG-C 1 μM; LY 2 μM; 2 hours
[4] = system: purified pDC; assay: IL-6 and TNF-α production by TLR-activated pDC, ELISA and real-time PCR; assay type: cell-based, human
[5] = system: NF-kB p65 (pS529); assay: NF-kB p65 phosphorylation in pDC, flow cytometry; assay type: cell-based, human; settings: CpG-C 1 μM; LY 1 or 5 μM, NF-kB inhibitor 0.5 μM; 90 min
Procedure: Accordingly, purified PDC were cultured with CpG-C ISS (1 μM) with or without PI3K inhibitor LY (1 μM or 5 μM) or NF-kB inhibitor (0.5 μM) for 90 min and analyzed by NF-kB flow cytometry. As described above, negatively purified pDC were stimulated with CpG-C and cells were immediately fixed with 4% of paraformaldehyde for 15 min a 37 C. Cells were then washed, permeabilized with PermBuffer III (BD bioscience) for 30 minutes on ice and stained with either Alexa-647 anti-human NF-kB p65 (pS529) for 30 min and then analyzed by flow cytometry.

[6] = system: NF-kB p50 and p65; assay: NF-kB p50 and p65 binding activity in pDC nuclear extracts (TransAM); assay type: cell-based, human; settings: CpG-C 1 μM; LY 5 μM; 4 hours
[7] = TLR9 or TLR7 ligands, LY up to 5 μM, ELISA

SMILES	CpG uptake [1]	CpG-induced IFN-α production ([2]; 5 hours of culture)	IFN-α in CpG-A stimulated pDC ([2]; CpG-A 0.5 μM, 16 hr, FIG. 6, listed as LY)	IFN-α production after washing out the inhibitor ([2]; washed after first 5 hours, restimulated for 12 hours)	IFN-α, IFN-β and IFN-ω mRNA [3]	IL-6 and TNF-α at the transcriptional level ([4]; CpG-C 1 μM, LY 2 μM, 2 and 5 hours, real-time PCR)	IL-6 production [4, 7]	TNF-α production [4, 7]	NF-kB phosphorylation [5]	binding activity of NF-kB p50 and p65 subunits [6]
COC[C@H]1OC(=O)c2coc3c2[C@@]1(C)C1=C(C3=O)[C@@H]2CCC(=O)[C@@]2(C)C[C@H]1OC(C)=O [wortmannin]	did not have any effect	–	–	–	–	–	–	–	–	–
O=c1cc(N2CCOCC2)oc2c(-c3ccccc3)cccc12 [LY294002]	did not have any effect	inhibited	strong inhibition; also recorded: inhibits	recover their ability to produce large amounts of IFN-α	almost completely inhibited	confirmed	not significantly affected	not significantly affected	did not observe any significant effect	No difference
